Results on 2 molecules are retold here after paper PMC8225811.

Sequences of proteins named here, by UniProt entry; tags and fusion partners are left off.
UniProt P01106: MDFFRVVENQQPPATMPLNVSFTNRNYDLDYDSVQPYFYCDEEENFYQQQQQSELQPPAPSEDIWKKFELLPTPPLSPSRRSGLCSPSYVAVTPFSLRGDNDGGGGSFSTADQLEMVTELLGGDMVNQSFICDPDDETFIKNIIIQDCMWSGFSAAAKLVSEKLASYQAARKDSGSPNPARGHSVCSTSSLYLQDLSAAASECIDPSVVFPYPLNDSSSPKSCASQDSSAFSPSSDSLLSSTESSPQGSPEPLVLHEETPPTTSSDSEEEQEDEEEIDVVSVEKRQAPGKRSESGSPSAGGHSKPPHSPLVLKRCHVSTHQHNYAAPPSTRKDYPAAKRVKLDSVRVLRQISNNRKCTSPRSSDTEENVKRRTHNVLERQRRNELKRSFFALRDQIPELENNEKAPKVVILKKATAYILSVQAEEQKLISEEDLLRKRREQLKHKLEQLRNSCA

The target in test [1] is Flag-c-Myc (c-Myc, Flag-tagged, overexpressed) (UniProt P01106). In words: co-IP; A549 and PC9 cells co-transfected with His-SNIP1 and Flag-c-Myc; IP with anti-Flag (c-Myc) antibody and, in turn, with anti-His (SNIP1) antibody on protein A/G magnetic beads; GLB+ lysis buffer (150 mM NaCl, 10 mM Tris-HCl pH 7.5, 0.5% Triton X-100, 10 mM EDTA pH 8.0); also done after knockdown of lncRNA AFAP1-AS1 (interaction significantly weakened).

Test [2] addresses c-Myc (endogenous) (human (endogenous in A549 and PC9)) (UniProt P01106). In words: co-IP; endogenous proteins in A549 and PC9 lysates; antibody on protein A/G magnetic beads; GLB+ lysis buffer (150 mM NaCl, 10 mM Tris-HCl pH 7.5, 0.5% Triton X-100, 10 mM EDTA pH 8.0); also done after knockdown of lncRNA AFAP1-AS1 (interaction weakened).

These are yes or no findings as the source states them, for the method shown. In cells and extracts the contact can be indirect. Some binding calls cover weakened binding; strength is not graded here. For some assays here: Where a sequence is shown, tags or fusion partners need not be part of it.

B1: His-SNIP1 (Smad nuclear interacting protein 1, His-tagged, overexpressed) (protein, UniProt Q8TAD8 1-396)
chain: MKAVKSERERGSRRRHRDGDVVLPAGVVVKQERLSPEVAPPAHRRPDHSGGSPSPPTSEPARSGHRGNRARGVSRSPPKKKNKASGRRSKSPRSKRNRSPHHSTVKVKQEREDHPRRGREDRQHREPSEQEHRRARNSDRDRHRGHSHQRRTSNERPGSGQGQGRDRDTQNLQAQEEEREFYNARRREHRQRNDVGGGGSESQELVPRPGGNNKEKEVPAKEKPSFELSGALLEDTNTFRGVVIKYSEPPEARIPKKRWRLYPFKNDEVLPVMYIHRQSAYLLGRHRRIADIPIDHPSCSKQHAVFQYRLVEYTRADGTVGRRVKPYIIDLGSGNGTFLNNKRIEPQRYYELKEKDVLKFGFSSREYVLLHESSDTSEIDRKDDEDEEEEEEVSDS
In the case of B1, in test [1], the binding result is on record as “binds”.

B2: SNIP1 (endogenous) (protein, UniProt Q8TAD8 1-396)
chain: B1 chain
B2: the binding entry in test [2] is “binds”.
